For the test, the system named is BDF1 mice, colon carcinoma 38 sc, T/C %. Put plainly: NCI In Vivo Anticancer Drug Screen. Data for tumor model Colon Carcinoma 38 (subcutaneous) in B6D2F1 (BDF1) mice. As to conditions: T/C endpoint: median tumor weight (est.), higher T/C = larger tumour; for T/C: evaluated on day 20. The method, boiled down: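 Ratio of survival or tumor size, compound-treated animals relative to vehicle controls, in tumor-bearing mice.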

Setting [1] is: dose: 5.0 mg/kg/injection, schedule: Q07DX002 (ip), vehicle: saline with Tween-80.
Where [2] appears, read: dose: 10.0 mg/kg/injection, schedule: Q07DX002 (ip), vehicle: saline with Tween-80.
The mark [3] stands for this setting: dose: 20.0 mg/kg/injection, schedule: Q07DX002 (ip), vehicle: saline with Tween-80.
Setting [4] is: dose: 40.0 mg/kg/injection, schedule: Q07DX002 (ip), vehicle: saline with Tween-80.
Where [5] appears, read: dose: 80.0 mg/kg/injection, schedule: Q07DX002 (ip), vehicle: saline with Tween-80.
[6] abbreviates: dose: 160.0 mg/kg/injection, schedule: Q07DX002 (ip), vehicle: saline with Tween-80.
The mark [7] stands for this setting: dose: 50.0 mg/kg/injection, schedule: Q07DX002 (ip), vehicle: water.

The list does not hold the whole screen: it is rich in T/C values a quarter to a half above the control, in often repeated tests (any T/C) and in doses without a T/C. Other doses and runs of a compound stand elsewhere. T/C is the treated group as % of the vehicle group. Schedule codes are those of the source, taken here to give the interval after Q, in days (D) or hours (H), and the number of doses after X. Some T/C values carry the count of animals alive at the toxicity check (mostly the fifth day); where none is given, no animal had died by that day. Some entries were tested several times; the values are given in rising order. Signs of the kind (2×) count equal records among those shown. Some entries give survivors of the animals treated and no T/C: the source holds a T/C of zero for them, seemingly a mark for toxic or unscored doses. Survivors were counted at the toxicity check, usually on the fifth day, unless a day is given; later deaths do not show. *1 amine or outer side, *2 acyl side, *3 side chain or, on linkers, in order; H or OH if unused. Where a SMILES comes first, the peptide text is derived from it. Bridges are numbered along the chain shown (N, C = ends). Roman numbers before positions name the chains, in order. [ ]: non-standard residue; d: D form. Actinocin(9to1) = Cc1c2oc3c(C)ccc(C(=O)[*:1])c3nc-2c(C(=O)[*:2])c(N)c1=O; aThr = C[C@H](O)[C@H](N)C(=O)O; NMeV = CN[C@H](C(=O)O)C(C)C; Sar = CNCC(=O)O

For the compound `O=C(O)C(CSC(c1ccccc1)(c1ccccc1)c1ccccc1)N=Cc1cccs1` (stereo unspecified), the survivor count was 4 of 10 on day 20 (dose: 400.0 mg/kg/injection, schedule: Q07DX002 (ip), vehicle: saline); 4 of 10 on day 20 (dose: 400.0 mg/kg/injection, schedule: Q07DX002 (ip), vehicle: suspension in saline); 1 of 10 on day 20 (dose: 800.0 mg/kg/injection, schedule: Q07DX002 (ip), vehicle: saline); 0 of 10 on day 20 (dose: 800.0 mg/kg/injection, schedule: Q07DX002 (ip), vehicle: suspension in saline).
Take `CC(C)(C)c1ccc(CN2CCN(C(c3ccccc3)c3ccc(Cl)cc3)CC2)cc1` (stereo unspecified): the T/C (dose: 128.0 mg/kg/injection, schedule: Q07DX002 (ip), vehicle: Klucel (hydroxypropylcellulose) (HPC)) was 127 % of control [9 of 10 alive on day 20].
Regarding `Nc1nc2c(C(=O)N3CCCC3)nnn2c2ccccc12`, the survivor count (dose: 200.0 mg/kg/injection, schedule: Q07DX002 (ip), vehicle: saline with Tween-80) is given as 0 of 10 on day 20 and the survivor count (dose: 400.0 mg/kg/injection, schedule: Q07DX002 (ip), vehicle: saline with Tween-80) was 0 of 10 on day 20.
For `Nc1nc(=S)c2ncn(C3CC(O)C(CO)O3)c2[nH]1` (stereo unspecified), the T/C under setting [1] was 30, 61 [9 of 10 alive on day 20], 78, 107, 116, 124, 125 % of control; the T/C under setting [2] was 32, 40, 42, 44, 58, 89 [9 of 10 alive on day 20], 93 % of control [9 of 10 alive on day 20]; the T/C under setting [3] was 2, 35, 43, 46, 57, 57 [9 of 10 alive on day 20], 75 % of control; the T/C under setting [4] is on record as 3, 13, 23, 34, 52, 62, 69 % of control; the T/C under setting [5] was 1 [9 of 10 alive on day 20], 2 [9 of 10 alive on day 20], 6, 11, 25, 26, 29 % of control [8 of 10 alive on day 20]; the T/C under setting [6] is 1 [9 of 10 alive on day 20], 2, 2 [8 of 10 alive on day 20] (2×), 7 [7 of 10 alive on day 20], 12 [8 of 10 alive on day 20], 17 % of control [8 of 10 alive on day 20]. Moreover, the survivor count under setting [1] is listed as 6 of 10 on day 20; the survivor count under setting [2] was 6 of 10 on day 20; the survivor count under setting [3] is recorded as 5 of 10 on day 20; the survivor count under setting [4] is listed as 3 of 10 on day 20; the survivor count under setting [5] is 2 of 10 on day 20; the survivor count under setting [6] is 1 of 10 on day 20. For the same compound, the survivor count (dose: 160.0 mg/kg/injection, schedule: Q07DX003 (ip), vehicle: saline with Tween-80) is 3 of 10.
With `O=C1NC2(CCCCC2)C(=O)N1CCN(CCCl)CCCl`, the survivor count runs as follows: (dose: 64.0 mg/kg/injection, schedule: Q07DX003 (ip), vehicle: Klucel (hydroxypropylcellulose) (HPC)) 2 of 10; (dose: 128.0 mg/kg/injection, schedule: Q07DX003 (ip), vehicle: Klucel (hydroxypropylcellulose) (HPC)) 1 of 10.
Regarding `O=CC(=O)c1ccc(O)cc1`, the T/C (dose: 100.0 mg/kg/injection, schedule: Q07DX002 (ip), vehicle: suspension in saline) was 129 % of control.
With `C[n+]1c(-c2cccc(OCCOCCOc3cccc(-c4c5cc(N)ccc5c5ccc(N)cc5[n+]4C)c3)c2)c2cc(N)ccc2c2ccc(N)cc21`, the survivor count (dose: 32.0 mg/kg/injection, schedule: Q07DX002 (ip), vehicle: water) is on record as 0 of 10 on day 20; the survivor count (dose: 64.0 mg/kg/injection, schedule: Q07DX002 (ip), vehicle: water) is 0 of 10 on day 20; the survivor count (dose: 128.0 mg/kg/injection, schedule: Q07DX002 (ip), vehicle: water) is given as 0 of 10 on day 20.
On to `NC(=O)c1csc(C2OC(CO)C(O)C2O)n1` (stereo unspecified), for which the survivor count under setting [7] is on record as 4 of 10 on day 20. For the same compound, the T/C (dose: 800.0 mg/kg/injection, schedule: Q07DX002 (ip), vehicle: water) was 130 % of control.
With `O=C(O)C1CC1.[Ag]`, the T/C (dose: 12.5 mg/kg/injection, schedule: Q07DX002 (ip), vehicle: distilled water + Tween-80) is 129 % of control. Also, the survivor count is, setting by setting: (dose: 25.0 mg/kg/injection, schedule: Q07DX002 (ip), vehicle: water) 5 of 10 on day 20; (dose: 50.0 mg/kg/injection, schedule: Q07DX002 (ip), vehicle: distilled water + Tween-80) 0 of 10 on day 20; under setting [7], 1 of 10 on day 20; (dose: 100.0 mg/kg/injection, schedule: Q07DX002 (ip), vehicle: distilled water + Tween-80) 0 of 10 on day 20; (dose: 100.0 mg/kg/injection, schedule: Q07DX002 (ip), vehicle: water) 0 of 10 on day 20; (dose: 200.0 mg/kg/injection, schedule: Q07DX002 (ip), vehicle: distilled water + Tween-80) 0 of 10 on day 20. For the same compound, the survivor count (dose: 200.0 mg/kg/injection, schedule: Q07DX002 (ip), vehicle: water) was 0 of 10 on day 20.
As for `CCc1ccc(C2=C(O)C(=O)C(c3ccc(CC)cc3)=C(O)C2=O)cc1`, the T/C (dose: 6.25 mg/kg/injection, schedule: Q07DX002 (ip), vehicle: saline with Tween-80) is 126 % of control. The survivor count (dose: 100.0 mg/kg/injection, schedule: Q07DX002 (ip), vehicle: saline with Tween-80) was 6 of 10 on day 20.
For the compound `Cc1c2oc3c(C)ccc(C(=O)N[C@@H]4C(=O)N[C@H](C(C)C)C(=O)N5CCC[C@H]5C(=O)N(C)CC(=O)N(C)[C@@H](C(C)C)C(=O)O[C@H]4C)c3nc-2c(C(=O)N[C@@H]2C(=O)N[C@H](C(C)C)C(=O)N3CCC[C@H]3C(=O)N(C)CC(=O)N(C)[C@@H](C(C)C)C(=O)O[C@H]2C)c(N)c1=O` (I: [aThr][dV]P[Sar][NMeV] / II: [aThr][dV]P[Sar][NMeV]; ester I:1-I:C, II:1-II:C; linker I:N-II:N via Actinocin(9to1)), the T/C (dose: 25.0 micrograms/kg/injection, schedule: Q07DX002 (ip), vehicle: saline + alcohol) was 135 % of control and the T/C (dose: 50.0 micrograms/kg/injection, schedule: Q07DX002 (ip), vehicle: saline + alcohol) was 135 % of control. The survivor count (dose: 800.0 micrograms/kg/injection, schedule: Q07DX002 (ip), vehicle: saline + alcohol) is 4 of 10 on day 20.
